Measurements reported in PubChem BioAssay AID652243 (Drosophila RNAi Screening Center, 2013)
In all, the deposit lists about 24,000 reagents; this is an unselected part of those with a known target gene and a result. Of all reagents, 246 (1%) were called active. 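Plates not normalised; calls are printed but the firefly/Renilla ratio behind them is not deposited; fold cut for lowering reported inconsistently.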 The raw values are shown without normalisation. Names joined by + are all predicted targets of the reagent. Reagent sequences are not shown. The record does not give: the amount of reagent.

Aim: 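Knock-downs that decrease or increase androgen receptor reporter signal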 (primary screen)
Cells: Drosophila S2R+ cells
Reagents: long dsRNA against Drosophila genes
Duration: 72 h (48 h, then 24 h hormone)
Treatment: synthetic androgen R1881 at 10 nM for 24 h
Measurement: 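Firefly light from an androgen-responsive reporter and Renilla control light per well, raw and unnormalised, for each of two replicates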
Scale: firefly reporter light: higher = more light from androgen-responsive reporter; Renilla control light: higher = more constitutive control signal (cell number, transfection)
Call rule: 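Hit when the log firefly-to-Renilla ratio dropped or increased by a fixed fold versus the mean of GFP or LacZ controls across duplicate plates; lowering cut given as 1.5 and as 3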
Calls: active = hit: reporter lowered or raised; inactive = no hit

Flad1 (Flavin adenine dinucleotide synthetase 1) [DRSC19898] → firefly reporter light, replicate 1: 1.32e5; firefly reporter light, replicate 2: 1.65e5; Renilla control light, replicate 1: 7.86e5; Renilla control light, replicate 2: 8.79e5; Outcome: inactive
Sema1a (Semaphorin 1a) [DRSC03433] → firefly reporter light, replicate 1: 2.77e5; firefly reporter light, replicate 2: 1.71e5; Renilla control light, replicate 1: 1.41e6; Renilla control light, replicate 2: 1.37e6; Outcome: inactive
CR32745 (pseudo) [DRSC17442] → firefly reporter light, replicate 1: 6.23e5; firefly reporter light, replicate 2: 8.34e5; Renilla control light, replicate 1: 1.29e6; Renilla control light, replicate 2: 1.36e6; Outcome: inactive
CR32745 (pseudo) [DRSC29689] → firefly reporter light, replicate 1: 8.79e5; firefly reporter light, replicate 2: 7.21e5; Renilla control light, replicate 1: 1.59e6; Renilla control light, replicate 2: 1.42e6; Outcome: inactive
CG11164 [DRSC19392] → firefly reporter light, replicate 1: 5.84e5; firefly reporter light, replicate 2: 6.12e5; Renilla control light, replicate 1: 3.28e6; Renilla control light, replicate 2: 3.26e6; Outcome: inactive
CG4793 [DRSC01966] → firefly reporter light, replicate 1: 1.97e5; firefly reporter light, replicate 2: 2.09e5; Renilla control light, replicate 1: 1.88e6; Renilla control light, replicate 2: 2.44e6; Outcome: inactive
LanB2 (Laminin B2) [DRSC11208] → firefly reporter light, replicate 1: 1.09e6; firefly reporter light, replicate 2: 4.48e5; Renilla control light, replicate 1: 2.34e6; Renilla control light, replicate 2: 1.39e6; Outcome: inactive
alphaTub85E (alpha-Tubulin at 85E) [DRSC16899] → firefly reporter light, replicate 1: 1.78e5; firefly reporter light, replicate 2: 2.45e5; Renilla control light, replicate 1: 3.27e6; Renilla control light, replicate 2: 3.25e6; Outcome: inactive
alphaTub85E (alpha-Tubulin at 85E) [DRSC23424] → firefly reporter light, replicate 1: 2.56e5; firefly reporter light, replicate 2: 4.39e5; Renilla control light, replicate 1: 5.32e5; Renilla control light, replicate 2: 5.90e5; Outcome: inactive
CG42586 + CG31775 [DRSC01413] → firefly reporter light, replicate 1: 26561; firefly reporter light, replicate 2: 29711; Renilla control light, replicate 1: 15575; Renilla control light, replicate 2: 12901; Outcome: inactive
hiro (highroad) [DRSC08564] → firefly reporter light, replicate 1: 1.59e6; firefly reporter light, replicate 2: 1.37e6; Renilla control light, replicate 1: 2.69e6; Renilla control light, replicate 2: 2.32e6; Outcome: inactive
hiro (highroad) [DRSC29780] → firefly reporter light, replicate 1: 4.09e5; firefly reporter light, replicate 2: 3.66e5; Renilla control light, replicate 1: 1.30e6; Renilla control light, replicate 2: 1.49e6; Outcome: inactive

An excerpt of the results above:
Flad1 (Flavin adenine dinucleotide synthetase 1) [DRSC19898] → firefly reporter light, replicate 1: 1.32e5; firefly reporter light, replicate 2: 1.65e5; Renilla control light, replicate 1: 7.86e5; Renilla control light, replicate 2: 8.79e5; Outcome: inactive
Sema1a (Semaphorin 1a) [DRSC03433] → firefly reporter light, replicate 1: 2.77e5; firefly reporter light, replicate 2: 1.71e5; Renilla control light, replicate 1: 1.41e6; Renilla control light, replicate 2: 1.37e6; Outcome: inactive
